# Laboratory results from PubChem BioAssay AID1487 (National Center for Advancing Translational Sciences (NCATS), 2009).
# The whole screen tested about 200,000 compounds, of which about 25 (0.01%) were called active. Inconclusive results, whose numbers are uncertain, are shown with a selection of clear calls. Calls follow the shape of the dose curve; as a rule, active = well fitted inhibition curve with a large enough effect in the signal ratio, with a control signal flat (not every such curve was filed as active); inconclusive = small, poorly fitted or top-dose-only effect, or effect the other way, or a change in a side signal; inactive = flat fitted curve, though single readings scatter; the % refers to the signal ratio. Potencies of inconclusive entries are doubtful fits and often do not repeat.
# Test: qHTS Assay for Modulators of Lamin A Splicing
# Conditions: HeLa LMNA splicing GFP/RFP minigene ratio, 48 h; ratio change, negative = inhibition: at 46.1 µM (top of the series) unless noted
# Procedure, shortened: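 S3 HeLa cells stably expressing lamin A-EGFP splicing minigene plus DsRed2, 600 cells/well, 48 h compound exposure at 37C. Laser-scanning cytometry; analysed as GFP (500-530 nm)/RFP (575-640 nm) total intensity ratio; 0.5% DMSO vehicle.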
# % is scaled to controls: 0 for no effect and ±100 for the full control effect; potency is read from the fitted curve at half-maximal effect.
Compound,"ratio change, negative = inhibition",Potency
Cc1ccc(NS(=O)(=O)c2ccc(OCC(=O)Nc3cccc([N+](=O)[O-])c3)c(C)c2)cc1,inactive,–
Cc1ccc(CSCC(=O)N2CCN(Cc3ccc4c(c3)OCO4)CC2)cc1,–,"inconclusive: 25.1 µM [falling, single point]"
Cc1cccc(Cn2c(CN3CCC(C(=O)NCCc4ccccc4)CC3)cc3ccccc32)c1,inactive,–
CC(=O)/C(=N\Nc1ccccc1)Sc1nncn1C,inconclusive: -12.3%,–
COc1cc2nc(N3CCN(C(=O)[C@@H]4COc5ccccc5O4)CC3)nc(N)c2cc1OC,inactive,–
CCCCC(=O)Nc1nc2c(OC)cc([N+](=O)[O-])cc2s1,inconclusive: -12.9% [at 46 µM],–
CCC(Oc1ccccc1)C(=O)Nc1ccc(O)c(-c2nc3cc(C)ccc3o2)c1 (stereo unspecified),inconclusive: 16.5% [at 46 µM],–
CCOc1ccccc1Oc1cn[nH]c1-c1ccc(OC)cc1O,–,"inconclusive: 35.5 µM [falling, single point]"
S=C(NCCc1ccccc1)N1CCn2cccc2C1c1ccncc1 (stereo unspecified),inconclusive: 14.9% [at 46 µM],–
COc1ccc(CC(=O)Nc2cccc(C(=O)Nc3cccc(C)c3)c2)cc1,inconclusive: -15.7% [at 46 µM],–
COc1ccc(C(=O)OCn2nnc3ccccc3c2=O)cc1,inconclusive: 4.04% [at 9.22 µM],–
Cc1ccccc1CNC(=O)c1ccc(Cl)c([N+](=O)[O-])c1,inconclusive: 0.904%,–
CCCC(=O)OCC(=O)NCc1ccc(Cl)cc1,inconclusive: -15.5% [at 9.22 µM],–
Cc1cccc(NCCNc2cccc(C)c2)c1,inactive,–
NC(=O)CC(O)c1cccc(Cl)c1 (stereo unspecified),inactive,–
Cc1nc(C(Cl)(Cl)Cl)nc2[nH]ccc(=O)c12,inconclusive: -33.8% [at 46 µM],–
O=C(O)c1ccc(/C=N/NC(=O)c2cc(-c3cccs3)nc3ccccc23)cc1,inactive,–
COc1ccc(-n2c(C)cc(C(=O)CSc3ccc(NC(C)=O)cc3)c2C)cc1,–,"inconclusive: 25.1 µM [fluorescent, single point]"
O=C(O)c1cc2nc3c(c(C(F)(F)F)n2n1)CCc1ccccc1-3,inactive,–
CCOC(=O)c1cc(S(=O)(=O)Nc2ccc(Br)c(C)c2)[nH]n1,inactive,–
COCCNc1ncnc2ccc(-c3cccc(OC)c3)cc12,inconclusive: -9.64%,–

Compound,"ratio change, negative = inhibition",Potency
O=C(C1CC(=O)N(c2ccc3c(c2)OCCO3)C1)N1CCN(c2ccccc2)CC1 (stereo unspecified),inconclusive: -1.87% [at 46 µM],–
CCOC(=O)c1sc(=NC(=O)/C=C/c2ccccc2)n(C)c1C,inactive,–
Cn1cc(CC(=O)N2CCN(c3ccc(Cl)cc3)CC2)c2ccccc21,–,"inconclusive: 35.5 µM [falling, single point]"
CCc1ccccc1NC(=O)/C(C#N)=C/c1ccc(Sc2ccccc2)o1,inconclusive: -30%,–
O=S(=O)(c1ccc(Br)cc1)c1nc(-c2ccccc2)oc1NCc1cccnc1,inconclusive: 36%,–
COc1cccc([C@H](O)Cn2cc(-c3ccc(CON=C(C)C)cc3)nn2)c1,inconclusive: -23.4%,–
O=C(CCC1CCCCC1)Nc1c2c(nn1-c1ccc(F)cc1)CS(=O)(=O)C2,inactive,–
O=C(COC(=O)c1cccs1)NCc1ccco1,inactive,–
COc1cccc(-n2cnnn2)c1,inactive,–
Cc1ccc(-c2nc(-c3ccc(Cl)cc3)sc2CC(=O)O)c(C)c1,inconclusive: 11.6% [at 46 µM],–
COC(=O)c1c(N)n(-c2ccc(N3CCOCC3)cc2)c2nc3ccccc3nc12,inactive,–
Cc1ccc(NC(=O)C(c2ccc(Cl)cc2)N2CCCCC2)cc1 (stereo unspecified),inconclusive: -27.9%,–
CCOc1ccc(C(=O)N[C@H](C(=O)Nc2cccc(S(=O)(=O)N3CCCCC3)c2)C(C)C)cc1,inconclusive: -24.2%,–
COc1cccc(Nc2ncc3nc(C)c(=O)n(CCc4ccccc4)c3n2)c1,–,"inconclusive: 35.5 µM [rising, single point]"
COc1ccc(S(=O)(=O)Nc2ccc(S(=O)(=O)N3CCOCC3)cc2)cc1,inactive,–
CC(C)(O)C(=O)NNC(=S)Nc1cccc(C(F)(F)F)c1,inconclusive: 31.8% [at 46 µM],–
COc1cc(C(=O)Nc2ccc(O)cc2C(=O)O)ccc1OC(C)=O,inconclusive: -4.73%,–
Cc1nnc(NC(=O)c2sc3ccccc3c2Cl)s1,inactive,–
COc1ccc(NC(=S)Nc2ccc(OCc3ccccc3)cc2)c(OC)c1,inconclusive: -30.2%,–
Nc1ncc(Br)cc1N=Cc1ccccc1,inconclusive: -7.18%,–
O=c1[nH]c2ccc(NCc3ccc(-c4cccc(Cl)c4)o3)cc2[nH]1,inconclusive: 32.1% [at 46 µM],–

# 5 entries from above, with bars between the fields:
Compound | ratio change, negative = inhibition | Potency
Cn1cc(CC(=O)N2CCN(c3ccc(Cl)cc3)CC2)c2ccccc21 | – | inconclusive: 35.5 µM [falling, single point]
O=S(=O)(c1ccc(Br)cc1)c1nc(-c2ccccc2)oc1NCc1cccnc1 | inconclusive: 36% | –
O=C(CCC1CCCCC1)Nc1c2c(nn1-c1ccc(F)cc1)CS(=O)(=O)C2 | inactive | –
COc1cccc(-n2cnnn2)c1 | inactive | –
CC(C)(O)C(=O)NNC(=S)Nc1cccc(C(F)(F)F)c1 | inconclusive: 31.8% [at 46 µM] | –

# (listing goes on)

Compound,"ratio change, negative = inhibition",Potency
CCOc1ccccc1CNC(=O)C1CCN(S(=O)(=O)c2cccc3nonc23)CC1,inconclusive: -14.3% [at 46 µM],–
CS(=O)(=O)Cc1cc(Sc2ccccc2)nc(-c2ccncc2)n1,inactive: -10.4% [at 9.22 µM],–
O=C(Nc1ccc2c(c1)CCC2)c1cc2ccccc2o1,–,"inconclusive: 35.5 µM [falling, single point]"
Cc1cc(Cl)ccc1OCCCC(=O)NCc1ccncc1,inconclusive: -19.3%,–
Cc1cc(NC(=O)Cn2cnc3c(nnn3-c3cccc(F)c3)c2=O)no1,inconclusive: 38.4% [at 46 µM],–
Nc1[nH]c(=S)nc2nc(-c3ccccc3)c(-c3ccccc3)nc12,inconclusive: 31.6% [at 46 µM],–
CCc1ccc(NC(=O)c2ccc(F)c(S(=O)(=O)N3CCN(c4ccc(OC)cc4)CC3)c2)cc1,inactive,–
O=[N+]([O-])c1c(NCCCO)cc(SCc2ccco2)c2nonc12,inactive,–
O=C1c2ccccc2C(=O)N1c1cccc(-c2csc(Nc3ccc4c(c3)OCO4)n2)c1,inactive,–
O=C(NCc1ccccc1)c1cccc(Br)n1,inactive,–
O=C1NN(c2ccc(F)cc2)C(=O)/C1=C\C=C\c1ccco1,inactive,–
O=C(Nc1ccc2c(c1)CCCN2C(=O)c1cccs1)c1ccccc1,–,"inconclusive: 15.8 µM [inhibitor, single point]"
COc1ccccc1CNC(=O)CCCN1C(=O)CSc2c1c(C)nn2-c1ccccc1,inactive,–
COc1cc(S(=O)(=O)N2CCN(c3ccccc3F)CC2)ccc1Cl,–,"inconclusive: 31.6 µM [falling, single point]"
COc1ccc(/C=N/N2CCOCC2)cc1O,inactive,–
C/C(=C/C(=O)N1CCc2ccccc21)C(=O)O,inactive,–
COC(=O)C1CCN(C(c2cccs2)c2sc3nc(C)nn3c2O)CC1 (stereo unspecified),–,"inconclusive: 35.5 µM [cytotoxic, single point]"
CC(NC(=O)C1CCN(S(=O)(=O)c2cnc[nH]2)CC1)c1ccccc1 (stereo unspecified),inactive,–
NC(=O)c1nsc(C(=O)N(CC(=O)NCc2ccc3c(c2)OCO3)C2CCCCC2)c1N,inconclusive: 1.78%,–
CCc1ccc2[nH]c(=O)c(C(c3nnnn3CCOC)N3CCN(c4ccccc4F)CC3)cc2c1 (stereo unspecified),inconclusive: 5.21%,–
CC(=O)N1c2ccc(S(=O)(=O)N3CCCCCC3)cc2CC1C(=O)NCc1ccccc1C (stereo unspecified),inconclusive: 35.4% [at 46 µM],–

Compound,"ratio change, negative = inhibition",Potency
C#C[C@]1(O)CC[C@H]2[C@@H]3CCc4cc(O)ccc4[C@H]3CC[C@@]21C,–,"inconclusive: 17.8 µM [activator, single point]"
Cc1nn(C)c(C)c1S(=O)(=O)N1CCc2ccccc21,inconclusive: 10.1%,–
N#Cc1cc2c(nc1SCc1ccccc1)CCCC2,inactive,–
Cc1ccc(NC(=O)C2CCCN2S(=O)(=O)c2cccc3cccnc23)cc1F (stereo unspecified),inconclusive: -38%,–
CCOc1ccc(CN2CCc3nc(Nc4ccc5c(c4)OCCO5)ncc3C2)cc1,inconclusive: -18.5% [at 46 µM],–
CC(NC(=O)C1CCC(C(C)(C)C)CC1)C(c1ccccc1)N1CCOCC1 (stereo unspecified),–,"inconclusive: 0.447 µM [inhibitor, partial curve, poor fit]"
CN(C)c1nc(Oc2ccc(=O)n(-c3ccccc3)n2)nc(N2CCOCC2)n1,inactive,–
CCN1CCN(CCCNC(=O)c2ccc(/C=C3/Sc4ccccc4N(Cc4ccccc4F)C3=O)cc2)CC1,–,"inconclusive: 35.5 µM [cytotoxic, partial curve]"
CC1(C)SC2C(N3C(=O)C(c4ccccc4)NC3(C)C)C(=O)N2C1C(=O)O (stereo unspecified),–,"inconclusive: 0.0056 µM [inhibitor, full curve, poor fit]"
[O]=[Bi][O]C(=O)[O][Bi]=[O],inconclusive: -10.6%,–
Cc1cc(C)nc(-n2nc(C)cc2NC(=O)CNC2CCCCC2)n1,inactive,–
COc1cccc(C(=O)NCC(c2ccc3c(c2)OCO3)N2CCOCC2)c1 (stereo unspecified),inconclusive: -4.16% [at 46 µM],–
Cc1ccc(C(=O)COC(=O)CN2C(=O)C3C4CCC(C4)C3C2=O)cc1[N+](=O)[O-] (stereo unspecified),inactive,–
C[N+](C)(CCCCCC[N+](C)(C)CCCN1C(=O)c2cccc3cccc(c23)C1=O)CCCN1C(=O)c2cccc3cccc(c23)C1=O,inconclusive: -1.48%,–
CN1CCN(C(=O)c2ccc3c(=O)n(Cc4ccc(Cl)cc4)c(=S)[nH]c3c2)CC1,–,"inconclusive: 35.5 µM [fluorescent, single point]"
Cc1ccc(S(=O)(=O)N2CCCC(C(=O)NC3=NCCS3)C2)cc1 (stereo unspecified),inactive,–
COc1cc(/C=C/c2cc(C(=O)O)c3ccccc3n2)cc(OC)c1O,inconclusive: 11.9% [at 46 µM],–
C/C(=N\Nc1ncc(Cl)cc1Cl)c1ccc(S(=O)(=O)NCc2ccco2)cc1,–,"inconclusive: 35.5 µM [fluorescent, single point]"
